No constants are given. Whether binding was seen depends on the method and setting. In cells and extracts the contact can be indirect. Some results given as binding are weak or reduced against the parent protein; the word gives no strength. Sequences can lack the tags named with a protein.
Target: T1, HA-tagged CHUK (human (amplified from 293T cells)) (UniProt O15111)
T1 sequence: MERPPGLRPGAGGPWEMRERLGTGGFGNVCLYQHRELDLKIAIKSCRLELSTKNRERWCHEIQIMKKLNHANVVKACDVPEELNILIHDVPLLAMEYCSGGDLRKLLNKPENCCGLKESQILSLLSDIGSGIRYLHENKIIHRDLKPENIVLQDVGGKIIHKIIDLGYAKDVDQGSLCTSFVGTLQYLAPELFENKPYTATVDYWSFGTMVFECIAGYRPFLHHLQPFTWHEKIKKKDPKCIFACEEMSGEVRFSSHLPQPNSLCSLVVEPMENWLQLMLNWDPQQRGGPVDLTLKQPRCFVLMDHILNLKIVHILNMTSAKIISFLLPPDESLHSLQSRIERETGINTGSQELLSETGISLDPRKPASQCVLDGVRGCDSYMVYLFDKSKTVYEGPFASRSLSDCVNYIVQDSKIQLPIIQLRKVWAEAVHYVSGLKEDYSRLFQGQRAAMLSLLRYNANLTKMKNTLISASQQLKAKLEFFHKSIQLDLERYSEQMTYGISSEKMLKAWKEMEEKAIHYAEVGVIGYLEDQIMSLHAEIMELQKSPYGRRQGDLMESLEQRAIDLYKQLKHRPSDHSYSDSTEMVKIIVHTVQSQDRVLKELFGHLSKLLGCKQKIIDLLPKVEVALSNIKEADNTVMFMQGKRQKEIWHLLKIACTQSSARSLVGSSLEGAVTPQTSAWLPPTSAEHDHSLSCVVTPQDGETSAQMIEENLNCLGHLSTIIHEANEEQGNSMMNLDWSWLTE
Experiment: co-IP; 293T cells co-transfected with the two tagged plasmids (2.5 µg each); RIPA whole-cell lysates, sonicated; precipitated with anti-Flag, anti-His or anti-HA nanobody magnetic beads overnight at 4°C; immunoblot

Sequences of proteins named here, by UniProt entry; tags and fusion partners are left off. Residues count along the entry.
UniProt P11021, residues 19-654: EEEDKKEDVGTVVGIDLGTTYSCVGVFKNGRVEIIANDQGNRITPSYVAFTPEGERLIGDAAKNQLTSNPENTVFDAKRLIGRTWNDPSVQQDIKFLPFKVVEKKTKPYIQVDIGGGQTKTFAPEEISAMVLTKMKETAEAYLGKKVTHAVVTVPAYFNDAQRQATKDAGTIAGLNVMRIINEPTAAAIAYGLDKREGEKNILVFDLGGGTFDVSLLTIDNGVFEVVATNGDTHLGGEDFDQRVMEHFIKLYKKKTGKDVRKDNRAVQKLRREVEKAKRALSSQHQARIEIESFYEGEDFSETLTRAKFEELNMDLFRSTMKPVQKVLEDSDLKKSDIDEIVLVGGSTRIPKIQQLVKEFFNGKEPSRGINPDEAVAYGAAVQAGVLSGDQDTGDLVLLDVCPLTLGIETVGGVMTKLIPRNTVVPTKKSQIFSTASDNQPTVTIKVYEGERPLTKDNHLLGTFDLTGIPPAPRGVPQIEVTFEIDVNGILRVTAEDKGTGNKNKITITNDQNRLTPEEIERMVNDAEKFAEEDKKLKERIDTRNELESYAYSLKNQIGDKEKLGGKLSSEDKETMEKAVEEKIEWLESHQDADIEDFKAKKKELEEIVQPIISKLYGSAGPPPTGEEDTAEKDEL

His-tagged GRP78 (78 kDa glucose-regulated protein) (from UniProt P11021 19-654)
binding: binds

— PMC11237669
